Earlier results, collected in patent US20080032989A1, “Method of treating inflammatory diseases using tyroskine kinase inhibitors” (priority 2006, published 2008).

System: PDGFR
Settings: Table 7; cited from earlier work

CO[C@@H]1[C@H](N(C)C(=O)c2ccccc2)C[C@H]2O[C@]1(C)n1c3ccccc3c3c4c(c5c6ccccc6n2c5c31)C(=O)NC4 [PKC412]
PDGFR Inhibitory profile (with IC50s when available): potent
